# Assay results: patent US20130095505A1, “DETECTION OF LIPID OXIDISING ABZYMES IN SAMPLES” (priority 2005, published 2013)
# For at least one compound, name, drawing or mass did not settle the structure.
# Key:
# [1] = system: anti-Chlamydia abzymes; format: biochemical, human; conditions: pH 5.6
# Experimental: (§1) For chemical inactivation, a diluent solution was divided into two portions. In one portion, an abzyme inhibitor was added.
# (§2) The serum sample was split in two aliquots and one aliquot was diluted by solution containing the abzyme inhibitor, the second aliquot was diluted by the control solution. The aliquots were then tested in the same fashion.
# Lipid peroxidation was assessed as a level of MDA concentration, which was measured by spectrophotometric methods [Draper, H. H. et al Free Radio. Biol. Med. (1993) 15, 353]. Briefly, the level of abzymes in a sample was determined as follows: Samples of sera were diluted 1:1 by 0.05M acetate buffer pH 4.0 to make the final pH of these samples between 5.6-5.8. 994 μl of the diluted serum was mixed with 10 μl of the commercial live ovine Chlamydia vaccine (Intervet). Samples were incubated overnight (12-16 hours) at 37° C. 250 μl of 40% trichloroacetic acid and 250 μl of 1 mM 2-thiobarbituric acid was added to each sample. All samples were placed in a water bath and boiled for 30 minutes. Samples were cooled down and centrifuged at 3,000 g for 10 minutes. The supernatants were collected and their absorption measured at λ525 nm to determine the concentration of malondialdehydes (MDA), which are products of lipid peroxidation.
# [2] = system: anti-Chlamydia abzymes; format: biochemical, human
# Experimental: as §1, §2
# ELISA assays were performed using Medac materials and reagents, which were used in accordance with the manufacturers instructions.
# Briefly, serum samples from patients were treated as described above. 50 μl of sample diluent was pipetted into microtitre well Al as blank, and 50 μl of the negative control, Positive Control and the diluted patients' samples were pipetted into other microtitre wells. The microplate wells were incubated for 60 min (±5 min) at 37° C. (±1° C.) in a humid chamber and then washed three times with 200 μl wash buffer per well. 50 μl of Conjugate was then added to each well and the microplate wells incubated again for 60 min (±5 min) at 37° C. (±1° C.) in a humid chamber and then washed. 50 μl of TME-Substrate, was added to each well and the microplate wells incubated for 30 min (±2 min) at 37° C. (±1° C.) in a humid chamber. The reaction was stopped by adding 100 μl of Stop Solution, to each well.
# Photometric reading was performed at 450 nm (ref. 620-650 nm) within 15 min after adding the Stop Solution. […]
structure (smiles),measurement,setting,value
CN(C)[C@@H]1C(O)=C(C(N)=O)C(=O)[C@@]2(O)C(O)=C3C(=O)c4c(O)cccc4[C@@](C)(O)[C@H]3C[C@@H]12 [Tetracycline],"Inhibition of abzymes ability to cause: Serum lipid peroxidation, in MDA assay",[1],Negative
same,"Inhibition of abzymes ability to cause: Damage of Chlamydia pneumoniae antigen, in ELISA",[2],Negative
